According to paper PMC11428915:
Results are given in words; binding and its absence hold for the method and conditions named. In cells and extracts the contact can be indirect. Some binding calls cover weakened binding; strength is not graded here.

By UniProt entry, the sequences of proteins in these tests, tags left out. Where a name states a change or a piece, a line headed by the entry shows the natural chain unless it says otherwise.
UniProt O60637: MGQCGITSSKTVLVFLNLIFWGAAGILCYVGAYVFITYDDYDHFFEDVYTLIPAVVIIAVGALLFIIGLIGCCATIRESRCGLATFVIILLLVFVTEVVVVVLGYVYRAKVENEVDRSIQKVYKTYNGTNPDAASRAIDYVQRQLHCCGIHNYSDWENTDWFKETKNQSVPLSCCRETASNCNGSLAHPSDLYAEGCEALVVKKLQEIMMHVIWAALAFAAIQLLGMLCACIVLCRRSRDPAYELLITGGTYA
UniProt P62491: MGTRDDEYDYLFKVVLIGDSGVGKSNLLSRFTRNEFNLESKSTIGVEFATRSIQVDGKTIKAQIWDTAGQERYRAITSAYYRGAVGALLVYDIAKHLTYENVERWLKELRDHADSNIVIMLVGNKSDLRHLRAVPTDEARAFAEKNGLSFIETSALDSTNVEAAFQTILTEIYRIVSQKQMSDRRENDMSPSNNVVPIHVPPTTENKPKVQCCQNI
UniProt P05556: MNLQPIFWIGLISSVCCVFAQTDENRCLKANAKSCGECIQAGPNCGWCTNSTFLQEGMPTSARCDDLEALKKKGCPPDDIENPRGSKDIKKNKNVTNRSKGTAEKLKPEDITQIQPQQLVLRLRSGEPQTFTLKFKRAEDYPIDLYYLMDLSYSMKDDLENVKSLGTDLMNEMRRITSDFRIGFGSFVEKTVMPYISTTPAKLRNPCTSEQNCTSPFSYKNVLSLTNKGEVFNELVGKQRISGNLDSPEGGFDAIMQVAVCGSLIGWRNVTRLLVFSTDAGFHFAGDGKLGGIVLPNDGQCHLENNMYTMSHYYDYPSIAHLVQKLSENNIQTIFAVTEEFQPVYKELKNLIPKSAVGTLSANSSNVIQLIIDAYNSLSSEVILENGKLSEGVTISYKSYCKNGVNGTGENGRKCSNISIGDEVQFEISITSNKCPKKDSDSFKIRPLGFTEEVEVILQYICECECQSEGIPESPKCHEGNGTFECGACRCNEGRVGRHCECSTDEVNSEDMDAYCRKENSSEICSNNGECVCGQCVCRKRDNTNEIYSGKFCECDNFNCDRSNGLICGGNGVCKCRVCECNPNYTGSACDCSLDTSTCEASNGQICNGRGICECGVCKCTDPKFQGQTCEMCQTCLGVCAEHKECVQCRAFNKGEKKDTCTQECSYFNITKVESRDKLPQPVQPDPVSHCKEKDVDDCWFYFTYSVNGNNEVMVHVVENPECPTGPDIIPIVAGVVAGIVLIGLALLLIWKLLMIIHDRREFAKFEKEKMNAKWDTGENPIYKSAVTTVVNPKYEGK

Legend:
[1] = target: Myc-FLAG-TSPAN3 (tetraspanin 3), ectopically expressed from pCMV6-Myc-FLAG-TSPAN3 (UniProt O60637); assay: co-IP; A549 cells, 48 h after transfection of pCMV6-Myc-FLAG-TSPAN3; lysates immunoprecipitated with anti-FLAG antibodies or control IgG, western blot of the partner
Wild-type GFP-TSPAN3 = Wild-type GFP-TSPAN3 (UniProt O60637); assay: co-IP; A549 cells, 48 h after transfection of wild-type GFP-TSPAN3 or TSPAN3-ΔLEL; lysates immunoprecipitated with anti-GFP antibody, western blot of the partner
[2] = target: Endogenous tetraspanin 3 (TSPAN3) of A549 cells (human (endogenous in A549)) (UniProt O60637); assay: co-IP; A549 cell lysates, endogenous proteins; immunoprecipitated with anti-TSPAN3 antibody or control IgG, western blot of the partner

Measured: binding

Ras-related protein Rab-11a, endogenous in A549 cells (from UniProt P62491 1-216)
binds: all assays above

β1 integrin, endogenous in A549 cells (from UniProt P05556 21-798) (receptor)
binds: all assays above
